# Test results: patent publication US8741955B2, “D-serine transporter inhibitors as pharmaceutical compositions for the treatment of central nervous system disorders” (Allergan, Inc., priority 2011, dated 2014)
# Some entries share one result that the patent states for a list of compounds.
# System: human ASCT1 or ASCT2
# Test: transport in HEK cells expressing ASCT1 or ASCT2 (one or both assays)
# Format: cell-based
smiles,measurement,value
O=C(O)[C@@H]1C[C@@H](O)CN1 [L-trans-4-hydroxyproline],IC50,< 2000 µM
